In PubChem BioAssay AID2551 (National Center for Advancing Translational Sciences (NCATS), 2010):
In all, about 310,000 compounds went through this assay and about 17,000 (5.5%) were called active. Inconclusive results, whose numbers are uncertain, are shown with a selection of clear calls. Calls follow the shape of the dose curve; as a rule, active = well fitted inhibition curve with a large enough effect; inconclusive = small, poorly fitted or top-dose-only effect, or effect the other way; inactive = no such curve, though single readings can be large or run the other way. Potencies of inconclusive entries are doubtful fits and often do not repeat.

Sequences of proteins named here, by UniProt entry; tags and fusion partners are left off. A change or cut given only in a name is not applied to a line headed by its entry.
UniProt P51450: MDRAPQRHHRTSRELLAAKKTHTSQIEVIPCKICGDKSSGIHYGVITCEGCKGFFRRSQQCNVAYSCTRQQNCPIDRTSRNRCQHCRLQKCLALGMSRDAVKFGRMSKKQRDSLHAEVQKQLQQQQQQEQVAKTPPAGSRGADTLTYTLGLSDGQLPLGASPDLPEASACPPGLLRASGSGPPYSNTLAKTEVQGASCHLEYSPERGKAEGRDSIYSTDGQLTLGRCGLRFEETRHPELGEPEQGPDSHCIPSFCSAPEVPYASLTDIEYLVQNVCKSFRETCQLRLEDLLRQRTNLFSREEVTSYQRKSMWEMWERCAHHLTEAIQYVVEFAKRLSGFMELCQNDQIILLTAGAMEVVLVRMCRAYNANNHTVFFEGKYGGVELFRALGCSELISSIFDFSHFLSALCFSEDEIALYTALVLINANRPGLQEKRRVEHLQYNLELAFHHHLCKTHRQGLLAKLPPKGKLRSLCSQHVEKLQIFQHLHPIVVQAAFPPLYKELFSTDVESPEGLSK

What follows are compounds tested against Nuclear receptor ROR-gamma (Mus musculus) (UniProt P51450) (assay: qHTS for inhibitors of ROR gamma transcriptional activity). Details: Drosophila S2 Gal4-RORgamma UAS-luciferase reporter, 20 h; activity change, negative = inhibition: at 53.6 µM (top of the series).
Procedure, shortened: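 Drosophila S2 cells stably expressing Gal4-DBD/mouse RORγ fusion under metallothionein promoter plus UAS-luciferase; compound 1 h, then 700 uM CuSO4 induction for 20 h at ambient temperature; inhibition read as reduced luminescence.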
% is scaled to controls: 0 for no effect and ±100 for the full control effect; potency is read from the fitted curve at half-maximal effect.
Also: nearly all actives have a fitted effect of over 60% in size.

Potency, active:
O=C(NN=C1CCCC1)c1ccc(O)cc1 11.2 µM
C=CCn1c(C(CC)CC)nc2ccccc21 6.31 µM
N#CC1=C(Nc2ccccc2Cl)SC(c2ccccc2O)NC1=O (stereo not drawn) 12.6 µM
c1ccc2c(c1)Cn1nc(Cc3nc4c(s3)CCCC4)nc1-2 14.1 µM
COCCCNC(=S)Nc1ccc(OC(F)F)cc1C 11.2 µM
Cc1ccc(C(=O)N/N=C/c2ccc([N+](=O)[O-])s2)cc1 0.708 µM
O=C1CC(Sc2nnnn2-c2ccccc2)C(=O)N1c1cccc(Cl)c1 (stereo not drawn) 3.55 µM
C=C(C)CNC(=S)Nc1cccc(N)n1 2.82 µM
CCn1c(O)c(N=NC2=NC(=O)CS2)c2ccccc21 10 µM
OC[C@H]1O[C@@H](n2cnc3cncnc32)[C@H](O)[C@@H]1O 7.08 µM
CCS(=O)(=O)N1Cc2ccccc2CC1C(=O)Nc1nnc(SCc2c(Cl)cccc2Cl)s1 (stereo not drawn) 5.01 µM
C=CCN(CC=C)Cc1nc(N)nc(Nc2ccccc2C)n1 12.6 µM

Potency, inactive:
CN1[C@@H](CC(=O)c2ccccc2)CCC[C@H]1C[C@H](O)c1ccccc1

Potency, inconclusive:
O=C(O)CN(c1ccc2c(c1)OCCO2)S(=O)(=O)c1ccccc1 6.31 µM [inhibitor, single point]
Cc1nnc(NC(=O)C(c2ccccc2)c2ccccc2)s1 35.5 µM [inhibitor, single point]
CCN(CC)S(=O)(=O)c1ccc(N2CCN(c3ccccc3O)CC2)nc1 11.2 µM [activator, single point]
COc1cc(C(=O)NCC(=O)N/N=C/c2ccc(-c3ccc([N+](=O)[O-])cc3)o2)cc(OC)c1OC 6.31 µM [activator, full curve]
CN(CC(=O)N1CC=C(c2ccccc2)CC1)S(=O)(=O)c1ccc2c(c1)c(=O)n(C)c(=O)n2C 1.26 µM [inhibitor, full curve]
CCOc1ccc(NS(=O)(=O)c2ccc(C(=O)N(C)CCc3ccc(OC)c(OC)c3)cc2)cc1 3.55 µM [activator, single point]
CCOC(=O)C1=C(C)N=c2s/c(=C\C(=O)OC)c(=O)n2C1c1ccc(OC)cc1 (stereo not drawn) 6.31 µM [inhibitor, partial curve]
COc1ccc(NC(=O)C(NC(C)=O)C(=O)NCc2ccccc2Cl)cc1 (stereo not drawn) 14.1 µM [activator, single point]
COc1cc(C(=S)N2CCOCC2)ccc1OC(=O)c1ccccc1C 12.6 µM [activator, single point]
Cc1[nH]c2c(Br)cccc2c1[C@H]1[C@@H](CC#N)C1(C)C 12.6 µM [inhibitor, single point]
CNC(=S)NNC(=O)c1cccc(N(C)C)c1 14.1 µM [inhibitor, single point]
CCCCn1c(SCc2cccc([N+](=O)[O-])c2)nc2ccsc2c1=O 20 µM [activator, single point]
CCOC(=O)C1(C)/C(=N/Nc2ccccc2OC)C(=O)C(=O)N1c1ccccc1 (stereo not drawn) 0.398 µM [inhibitor, full curve]
Cc1sc2ncnc(NCC(C)(C)N3CCOCC3)c2c1C 35.5 µM [inhibitor, single point]
COC(=O)[C@@]1(Cc2ccc(OC)cc2)[C@H]2c3cc(C(=O)N4CCCC4)n(Cc4nc5ccccc5[nH]4)c3C[C@H]2CN1C(=O)c1ccccc1 35.5 µM [activator, single point]
CCC(=O)Nc1cc(SCCO)cc([N+](=O)[O-])c1 14.1 µM [activator, single point]
Cc1ccccc1C(=O)c1cccn1CC(=O)NCc1ccc(Cl)cc1 12.6 µM [activator, single point]
Nc1nnc(SCC(=O)c2ccc3ccccc3c2)s1 35.5 µM [inhibitor, single point]
CC(C)(C)c1ccc(OCc2ccc(C(=O)N/N=C/c3ccc(O)c(O)c3)cc2)cc1 31.6 µM [inhibitor, single point]
CCN1CCN(C(=O)C2(NC(=O)Nc3ccccc3Cl)CCCCC2)CC1 35.5 µM [inhibitor, single point]
O=C(CCl)N(CCCNC(=O)C(F)(F)F)c1ccc([N+](=O)[O-])cc1 35.5 µM [inhibitor, single point]
COc1cc(/C=C(\C#N)c2ccccn2)ccc1OCc1ccccc1Cl 7.08 µM [activator, partial curve]
Cc1cccc(NC(=O)c2ccc([N+](=O)[O-])o2)c1 10 µM [inhibitor, partial curve]
O=C(NCCn1ccc2ccccc21)c1ccc(S(=O)(=O)N2CCCCC2)cc1 4.47 µM [activator, full curve]
CCN(CCCNC(=O)c1c(C)cc(=O)oc1C)c1cccc(C)c1 7.08 µM [activator, partial curve]
CCCCCC1CC(CC(=O)Nc2ccc([N+](=O)[O-])cc2)OC1=O (stereo not drawn) 11.2 µM [activator, single point]
CCOC(=O)c1sc(Nc2cccc(C)c2C)nc1C 11.2 µM [inhibitor, partial curve]
COc1ccc(-c2ccc3ccccc3n2)cc1 15.8 µM [inhibitor, single point]
CO/N=C/c1ccc(Oc2ccc(C)cc2)c([N+](=O)[O-])c1 3.55 µM [activator, full curve, poor fit]
Cc1ccc(/C=N/NC(=O)c2ccccc2OCc2cccc(Br)c2)o1 14.1 µM [inhibitor, single point]
CC1=NN(C(=O)c2ccc(Br)cc2)C(O)(c2ccccc2)C1 (stereo not drawn) 35.5 µM [inhibitor, single point]
Cc1ccc(C(=O)NCCc2c[nH]c3ccccc23)c(C)c1 0.005 µM [inhibitor, full curve, poor fit]
Cc1cc(NC(=O)CSc2ccc3nnc(-c4cccnc4)n3n2)no1 3.16 µM [inhibitor, single point]
Cc1ccnc(NC(=O)C2CCN(S(=O)(=O)c3cccc(C(F)(F)F)c3)CC2)c1 22.4 µM [activator, single point]
Cc1cccc(NC(=O)c2nc[nH]c2C(=O)NCC(=O)OC(C)(C)C)c1 6.31 µM [inhibitor, single point]
COc1ccc(/C=C(\C#N)C(=O)OCC(=O)Nc2ccc(C(C)(C)C)cc2)cc1 11.2 µM [activator, partial curve]
CC(C)C(C)NC(=O)CSc1nc2scc(-c3ccco3)c2c(=O)n1-c1ccccc1 (stereo not drawn) 15.8 µM [inhibitor, single point]
COc1cc(C)ccc1OCc1cc(C(=O)NCCN2CCOCC2)no1 2 µM [activator, partial curve]
CC1Oc2ccccc2C=C1/C=N/NC(=O)c1ccccc1O (stereo not drawn) 17.8 µM [inhibitor, single point]
COC(=O)[C@@]1(Cc2ccc(F)cc2)[C@H]2c3cc(C(=O)N(C)C)n(Cc4c(CO)[nH]cc(C)c4=O)c3C[C@H]2CN1C(=O)c1ccccc1 17.8 µM [activator, single point]
COC(=O)C1C(=O)c2c([nH]c(C(=O)OC3CCCC3C)c2C)CC1C (stereo not drawn) 0.0708 µM [activator, full curve, poor fit]

Random excerpt: two records from the list, in no set order.
Potency, inconclusive:
Nc1nnc(SCC(=O)c2ccc3ccccc3c2)s1 35.5 µM [inhibitor, single point]
CO/N=C/c1ccc(Oc2ccc(C)cc2)c([N+](=O)[O-])c1 3.55 µM [activator, full curve, poor fit]

Following part.

Activity change, negative = inhibition, inactive:
Cc1cc(Nc2ccccc2)nc(N)n1 8.21%
Cc1[nH]n(-c2ccccc2)c(=O)c1C=NCCc1ccccc1 -10%
O=[N+]([O-])c1ccccc1/C=N/N1CCN(c2ccc(Cl)cc2)CC1 34.6%
Cc1cc(N2CCN(c3ccc(F)cc3)CC2)nc2cc(O)ccc12 36.2%
Cc1ccc(C(NC(=O)C2CCCCC2)c2c(O)ccc3ccccc23)cc1 (stereo not drawn) 5.42%
COc1ccccc1CNC(=O)OCc1nccnc1C(=O)Nc1ccc(Br)cn1 17.7%
CCCCOc1ccc(C2C(=O)N(C3CCCCC3)CC(=O)N2CC2CCCO2)cc1 (stereo not drawn) 32.8%
CC(=O)Nc1ccc(NC(=O)COc2cccc3c2OC(C)(C)C3)cc1 -0.743%
CC(=O)Nc1ccc(C2=NN(CC#N)C(=O)SC2)cc1 15.1%
Oc1ccc(Cl)cc1C=Nc1ccc(Br)cc1 -10.1%
COc1ccc(CCc2nnc(CCC(=O)NCc3cc(C(C)C)no3)o2)cc1 18%
C[C@@H](CN=[N+]=[N-])CN1CC[C@H](C(C)(C)C)CCC1=O 9.35%
COc1ccc(CNC(=O)Cn2nc(C)n3cccc3c2=O)cc1 -5.59%
Cc1ccc(C(=O)Nc2ccc3c(c2)CCC3)cc1 -29.6%
COc1ccc(S(=O)(=O)N2CCC(c3nc4ccccc4[nH]3)CC2)cc1 0%
COc1ccccc1NC(=O)Nc1nnc(Cc2ccc(F)cc2)s1 7.65%
COc1cc2nc(CCc3ccccc3)oc(=O)c2cc1OC 1.98%
COc1ccc(/C=C/c2nnc(NC(=O)CSc3ccc(Cl)cc3)s2)cc1 -39.5%
CCOCCCNCC(=O)Nc1ccccc1N1CCOCC1 -10.8%
